The exact form of at least one protein or probe is not confirmed. At least one verdict rests on a figure or table, not on a statement of the authors.
Columns and labels:
[1] = molecular target: TDP-43 RRM2 (human) (UniProt Q13148); experiment: ITC; conditions: no clear plateaus, at least tetramers possible, Kd not in material; ITC: 15 mM phosphate pH 6.8, 25 mM KCl, 1 mM TCEP, 25 C; recombinant protein; residues 176-277; protein details: His6 cleaved by TEV; single-stranded DNA
[2] = molecular target: TDP-43 RRM1 (human) (UniProt Q13148); experiment: NMR; conditions: NMR: same buffer, 298 K (SEA-HSQC 310 K); recombinant protein; residues 101-192; protein details: His6 cleaved by TEV
[3] = molecular target: TDP-43 RRM2 (human) (UniProt Q13148); experiment: NMR; conditions: lower affinity than RRM1; NMR: same buffer, 298 K (SEA-HSQC 310 K); recombinant protein; residues 176-277; protein details: His6 cleaved by TEV

Sequences of proteins named here, by UniProt entry; tags and fusion partners are left off. Residues count along the entry.
UniProt Q13148, 176-277: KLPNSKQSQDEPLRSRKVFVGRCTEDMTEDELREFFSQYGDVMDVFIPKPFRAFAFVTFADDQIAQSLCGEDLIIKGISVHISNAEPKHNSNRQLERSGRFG
UniProt Q13148, 101-192: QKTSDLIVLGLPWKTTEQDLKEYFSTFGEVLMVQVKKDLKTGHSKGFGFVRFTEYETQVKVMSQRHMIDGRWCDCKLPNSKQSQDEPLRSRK

Sequence | binding result [1] | binding result [2] | binding result [3]
GTGTGTGTGTGTGTGTGTGTGTGT [(GT)12] | binds |  | 
GUGUGUGUGUGUGUGUGUGUGUGU [(GU)12] |  | binds | binds

— publication PMC8523171, “The cooperative binding of TDP-43 to GU-rich RNA repeats antagonizes TDP-43 aggregation”
